This test has as its target MyD88, endogenous in mouse bone marrow-derived macrophages (mouse (endogenous in bone marrow-derived macrophages)) (UniProt P22366). Description: co-IP; endogenous proteins in mouse bone marrow-derived macrophages, 1 μM TSA for 12 h then 100 ng/ml LPS for 30 min.

Amino acid sequences for entries named in this document (tags omitted). Residues count along the entry.
UniProt P22366: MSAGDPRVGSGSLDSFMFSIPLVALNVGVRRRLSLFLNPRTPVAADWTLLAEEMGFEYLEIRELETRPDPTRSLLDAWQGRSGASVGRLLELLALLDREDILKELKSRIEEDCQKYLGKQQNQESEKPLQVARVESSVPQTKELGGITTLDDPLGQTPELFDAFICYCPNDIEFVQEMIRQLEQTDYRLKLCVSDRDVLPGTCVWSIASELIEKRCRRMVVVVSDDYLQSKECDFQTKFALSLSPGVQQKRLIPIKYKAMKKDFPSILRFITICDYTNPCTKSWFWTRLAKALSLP
UniProt Q9QUK6, residues 26-835: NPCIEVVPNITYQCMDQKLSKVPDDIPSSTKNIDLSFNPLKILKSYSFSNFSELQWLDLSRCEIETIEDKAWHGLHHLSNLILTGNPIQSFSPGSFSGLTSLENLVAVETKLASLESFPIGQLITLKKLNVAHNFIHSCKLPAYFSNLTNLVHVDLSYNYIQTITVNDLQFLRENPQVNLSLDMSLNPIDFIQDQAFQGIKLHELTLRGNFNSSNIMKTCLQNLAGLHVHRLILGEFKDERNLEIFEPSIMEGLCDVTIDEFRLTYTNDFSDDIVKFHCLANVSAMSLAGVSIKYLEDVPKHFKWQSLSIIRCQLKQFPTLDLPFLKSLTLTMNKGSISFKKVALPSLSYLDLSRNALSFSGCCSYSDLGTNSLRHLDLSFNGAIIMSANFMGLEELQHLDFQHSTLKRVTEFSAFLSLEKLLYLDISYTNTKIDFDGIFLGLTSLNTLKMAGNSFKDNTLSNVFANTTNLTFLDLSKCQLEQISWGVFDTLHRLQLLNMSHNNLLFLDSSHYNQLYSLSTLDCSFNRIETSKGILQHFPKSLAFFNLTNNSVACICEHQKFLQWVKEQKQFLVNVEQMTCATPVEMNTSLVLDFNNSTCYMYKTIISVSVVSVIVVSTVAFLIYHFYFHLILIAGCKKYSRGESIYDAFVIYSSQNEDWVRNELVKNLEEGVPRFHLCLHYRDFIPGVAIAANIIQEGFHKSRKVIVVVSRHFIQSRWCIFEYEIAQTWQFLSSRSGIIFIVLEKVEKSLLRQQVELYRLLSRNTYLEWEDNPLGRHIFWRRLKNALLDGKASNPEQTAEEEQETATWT

No constants are given. Whether binding was seen depends on the method and setting. In cells and extracts the contact can be indirect. Some results given as binding are weak or reduced against the parent protein; the word gives no strength.

In the case of “TLR4, endogenous in mouse bone marrow-derived macrophages (from UniProt Q9QUK6 26-835) (receptor)”, the binding entry was “binds”.

The values above are taken from publication PMC11535217.
